Results on one substance are retold here after article PMC12022026.

These are yes or no findings as the source states them, for the method shown. In cells and extracts the contact can be indirect. A result given as binding can be weak or reduced; the word gives no strength.

This assay addresses T1, stimulator of interferon genes (STING), endogenous in mouse primary cardiomyocytes (mouse (endogenous in mouse primary cardiomyocytes)) (UniProt Q3TBT3).
T1 sequence: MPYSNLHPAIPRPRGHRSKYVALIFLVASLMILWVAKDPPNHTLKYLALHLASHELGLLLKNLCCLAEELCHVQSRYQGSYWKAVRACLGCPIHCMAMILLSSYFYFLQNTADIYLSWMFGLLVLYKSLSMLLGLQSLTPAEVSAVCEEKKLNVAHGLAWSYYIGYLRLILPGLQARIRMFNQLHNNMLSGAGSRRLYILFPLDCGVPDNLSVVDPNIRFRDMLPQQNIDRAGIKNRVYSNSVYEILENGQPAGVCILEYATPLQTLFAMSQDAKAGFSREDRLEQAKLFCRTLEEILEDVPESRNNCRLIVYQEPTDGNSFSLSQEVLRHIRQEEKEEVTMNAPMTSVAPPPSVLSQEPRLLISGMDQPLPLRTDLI
Put plainly: co-IP; endogenous proteins of mouse primary cardiomyocytes post-A/R, with or without short cGAMP stimulation; IP with STING or GPX4 antibody, immunoblot for the other. Background: A western blot detects proteins with antibodies after separation by electrophoresis.

As for “glutathione peroxidase 4 (GPX4), endogenous in mouse primary cardiomyocytes”, the binding entry is “binds”.
